Data on one molecule can be found in publication doi:10.1101/2024.06.13.598862 (bioRxiv, 2024).

The chains behind the UniProt entries cited, without tags or fusion partners. Where a name states a change or a piece, a line headed by the entry shows the natural chain unless it says otherwise.
UniProt P10636: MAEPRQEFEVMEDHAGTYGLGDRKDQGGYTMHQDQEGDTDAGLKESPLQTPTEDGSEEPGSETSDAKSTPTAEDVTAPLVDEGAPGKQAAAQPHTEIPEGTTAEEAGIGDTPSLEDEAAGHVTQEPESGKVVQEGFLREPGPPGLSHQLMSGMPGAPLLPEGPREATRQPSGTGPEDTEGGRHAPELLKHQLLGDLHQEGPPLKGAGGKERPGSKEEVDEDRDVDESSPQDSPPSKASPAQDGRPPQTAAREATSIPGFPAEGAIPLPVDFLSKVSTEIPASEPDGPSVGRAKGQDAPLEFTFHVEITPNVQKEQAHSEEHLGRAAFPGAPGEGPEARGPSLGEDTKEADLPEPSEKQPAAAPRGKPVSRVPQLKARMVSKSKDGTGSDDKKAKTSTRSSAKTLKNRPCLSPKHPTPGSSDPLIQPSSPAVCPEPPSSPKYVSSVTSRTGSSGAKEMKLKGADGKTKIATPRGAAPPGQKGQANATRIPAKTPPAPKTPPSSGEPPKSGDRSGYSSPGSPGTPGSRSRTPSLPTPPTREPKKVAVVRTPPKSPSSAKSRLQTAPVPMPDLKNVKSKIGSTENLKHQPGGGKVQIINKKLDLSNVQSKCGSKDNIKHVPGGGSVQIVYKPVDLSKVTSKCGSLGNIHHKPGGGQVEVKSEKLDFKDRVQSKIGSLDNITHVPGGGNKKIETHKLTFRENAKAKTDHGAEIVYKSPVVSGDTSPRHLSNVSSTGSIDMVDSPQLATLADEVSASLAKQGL

No constants are given. Whether binding was seen depends on the method and setting. Binding can be weak; no strength is given.

Holding throughout (experiment): co-phase separation
Test [1] addresses tau truncation, C-terminal fragment of tau (151-391) (human) (UniProt P10636).
In test [2] the target is tauΔPHF6 (deletion of the hexapeptide 306VQIVYK311) (human) (UniProt P10636).
In test [3] the target is tauΔPHF6* (deletion of the hexapeptide 275VQIINK280) (human) (UniProt P10636).

B1: Ydj1, yeast Hsp40 (natural protein, UniProt P25491 1-409, looked up)
chain: MVKETKFYDILGVPVTATDVEIKKAYRKCALKYHPDKNPSEEAAEKFKEASAAYEILSDPEKRDIYDQFGEDGLSGAGGAGGFPGGGFGFGDDIFSQFFGAGGAQRPRGPQRGKDIKHEISASLEELYKGRTAKLALNKQILCKECEGRGGKKGAVKKCTSCNGQGIKFVTRQMGPMIQRFQTECDVCHGTGDIIDPKDRCKSCNGKKVENERKILEVHVEPGMKDGQRIVFKGEADQAPDVIPGDVVFIVSERPHKSFKRDGDDLVYEAEIDLLTAIAGGEFALEHVSGDWLKVGIVPGEVIAPGMRKVIEGKGMPIPKYGGYGNLIIKFTIKFPENHFTSEENLKKLEEILPPRIVPAIPKKATVDECVLADFDPAKYNRTRASRGGANYDSDEEEQGGEGVQCASQ
For the molecule B1, the binding result in test [1] is reported as “binds”; in test [2], “binds weakly”; in test [3], “binds”.
